Experimental data reported in patent US20050119205A1, “Methods of modulating heme oxygenase-1 expression and treating heme oxygenase-1 mediated conditions” (published 2005).

What was measured:
[1] = target: T1, biliverdin reductase (hBVR) (Homo sapiens) (UniProt P53004); assay: EMSA; details: subdued signal comparable to zero AP-1 fragment, AP-1-unrelated interaction; protein translated in vitro; protein details: rabbit reticulocyte lysate, 35S-Met labelled; label: 32P 5'
T1 sequence (limits assumed): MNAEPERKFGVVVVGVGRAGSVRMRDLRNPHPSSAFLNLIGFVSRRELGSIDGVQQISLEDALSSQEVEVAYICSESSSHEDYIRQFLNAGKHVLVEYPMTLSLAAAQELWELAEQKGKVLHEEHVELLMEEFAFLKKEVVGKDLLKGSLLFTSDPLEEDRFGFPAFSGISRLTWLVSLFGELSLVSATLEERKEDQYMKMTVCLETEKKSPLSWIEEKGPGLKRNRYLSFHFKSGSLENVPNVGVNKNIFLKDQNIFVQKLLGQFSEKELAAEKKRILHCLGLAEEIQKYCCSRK

[2] = target: T2, biliverdin reductase (hBVR), E. coli expressed, monomeric (Homo sapiens) (UniProt P53004); assay: EMSA; details: monomeric E. coli protein; purified recombinant protein; label: 32P 5'
T2 sequence (limits assumed): T1 sequence (limits assumed)

Row | Sequence | binding result [1] | binding result [2]
1 | TCCTCAGCTGCTTTTATGCTGTGTCATGGTTGGGAGGGGTGATTAGCAGACAAAGGGAAGACAGATTTTGCGATCCTCCCCTCTGTTCCCTCTGCCTCAG / CTGAGGCAGAGGGAACAGAGGGGAGGATCGCAAAATCTGTCTTCCCTTTGTCTGCTAATCACCCCTCCCAACCATACACAGCATAAAAGCAGCTGAGGA [100-mer, one AP-1 site (OL.619/OL.620)] | binds more weakly | –
2 | TCCTCAGCTGCTTTTATGCTGTGTCATGGTTGGGAGGGGTGATTAGCAGACAAAGGGAAGACAGATTTTGCTGAGTCACCCTCTGTTCCCTCTGCCTCAG (double strand) [100-mer HO-1 promoter, two AP-1 sites (OL.623/OL.624)] | – | no binding

For some assays here: No signal at the amounts used counts as a negative. Where a protein sequence is shown, tags need not be part of it. For some assays here: Construct, isoform or probe ends are uncertain for at least one entry. For some assays here: The comparison behind a weaker result is the experiment's own reference, which may not be listed here.
